The target in the assay is T1, rhesus monkey PRLR expressed on cells (rhesus monkey, UniProt F7HIU9 25-619).
T1 sequence: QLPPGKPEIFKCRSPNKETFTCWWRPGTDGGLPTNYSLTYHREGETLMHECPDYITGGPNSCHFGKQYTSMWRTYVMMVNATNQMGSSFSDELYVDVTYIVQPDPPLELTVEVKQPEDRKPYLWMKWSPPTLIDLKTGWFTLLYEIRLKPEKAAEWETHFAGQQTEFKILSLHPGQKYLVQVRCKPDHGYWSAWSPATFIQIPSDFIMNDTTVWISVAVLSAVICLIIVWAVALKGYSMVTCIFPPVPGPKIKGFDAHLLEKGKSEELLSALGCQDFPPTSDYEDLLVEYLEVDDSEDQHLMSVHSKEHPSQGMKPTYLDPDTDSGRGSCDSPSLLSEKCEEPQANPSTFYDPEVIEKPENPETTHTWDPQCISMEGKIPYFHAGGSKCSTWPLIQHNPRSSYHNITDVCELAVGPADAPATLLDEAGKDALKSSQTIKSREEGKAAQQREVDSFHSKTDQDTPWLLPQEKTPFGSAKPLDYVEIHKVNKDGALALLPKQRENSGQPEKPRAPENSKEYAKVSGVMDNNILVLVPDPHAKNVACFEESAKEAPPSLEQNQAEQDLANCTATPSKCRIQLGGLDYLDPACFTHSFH
The experiment in a line: flow cytometry on BaF3 cells stably transfected with rhesus monkey PRLR. (A flow cytometer gives signals particle by particle.)

These are yes or no findings as the source states them, for the method shown. Some results given as binding are weak or reduced against the parent protein; the word gives no strength.

B1: antibody HE06642 as IgG1 molecule (antibody, V domains shown)
VH: EVQLVESGGGLVQPGGSLRLSCAVSGFTFSSYGMSWVRQAPGKGLEWVATVSSGGTYTYYPDSVKGRFTISRDNSKNTLYLQMNSLRAEDTAVYYCARHRGNYYATYYYAMDYWGQGTLVTVSS
VL: DIVLTQSPDSLAVSLGERATINCKASKSVSTSGYTYMHWYQQKPGQPPKLLIYLASNRESGVPDRFSGSGSGTDFTLTISPVQAEDVATYYCQHSGELPPSFGQGTKLEIKR
Take B1: the binding entry was “binds”.

Source of the values: patent publication US20140141003A1 (Bayer, published 2014).
